In patent US20230131339A1, “EPI-X4 BASED PEPTIDES AND DERIVATIVES THEREOF” (Universitaet Ulm, priority 2020, published 2023):
Results are given in words; binding and its absence hold for the method and conditions named. Some binding calls cover weakened binding; strength is not graded here.

Protein sequences, listed by entry. Tags and fused reporters are not part of them.
UniProt P61073: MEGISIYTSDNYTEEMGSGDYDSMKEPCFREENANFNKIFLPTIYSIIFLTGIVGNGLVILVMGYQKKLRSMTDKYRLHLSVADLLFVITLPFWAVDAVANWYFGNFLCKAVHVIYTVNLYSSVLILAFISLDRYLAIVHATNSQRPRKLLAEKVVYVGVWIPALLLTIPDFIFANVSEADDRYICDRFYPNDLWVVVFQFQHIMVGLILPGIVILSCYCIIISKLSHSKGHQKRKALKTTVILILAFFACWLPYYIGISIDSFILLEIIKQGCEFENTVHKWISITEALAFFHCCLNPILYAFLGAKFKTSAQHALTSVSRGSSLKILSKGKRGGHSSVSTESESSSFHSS

Biological target: CXC chemokine receptor type 4 (CXCR4) (human) (UniProt P61073)
Experiment: antibody competition assay (FIG. 8B)

Binder | binding
ILRWSRKLPCVS (coupled to DSPE via PEG) [SC001] | binds
ILRWSRKLPCVS (two peptide copies on one end, coupled to DSPE via PEG) [SC069] | binds
